No constants are given. Whether binding was seen depends on the method and setting. Binding seen in cells or lysates may run through a third protein. Binding calls can cover weak binding; strength is not graded here.
Tests used:
EphA2-GFP (human) = EphA2-GFP (human) (UniProt P29317); assay: co-IP; anti-GFP magnetic beads, lysates of A2780 cells transfected with GFP, GFP-RCP or EphA2-GFP; 0.15% Tween-20 buffer; 2 h at 4 °C; immunoblot
[1] = molecular target: Ephrin type-A receptor 2 (EphA2), endogenous (human (endogenous in A2780, H1299, PC3)) (UniProt P29317); assay: co-IP; anti-EphA2 magnetic beads, endogenous proteins in lysates of untransfected A2780, H1299 and PC3 cells (H1299 also with si-LMTK3 and HGF 10 ng/ml); 0.15% Tween-20 buffer; 2 h at 4 °C; immunoblot

By UniProt entry, the sequences of proteins in these tests, tags left out. Residues count along the entry.
UniProt P29317, residues 24-976: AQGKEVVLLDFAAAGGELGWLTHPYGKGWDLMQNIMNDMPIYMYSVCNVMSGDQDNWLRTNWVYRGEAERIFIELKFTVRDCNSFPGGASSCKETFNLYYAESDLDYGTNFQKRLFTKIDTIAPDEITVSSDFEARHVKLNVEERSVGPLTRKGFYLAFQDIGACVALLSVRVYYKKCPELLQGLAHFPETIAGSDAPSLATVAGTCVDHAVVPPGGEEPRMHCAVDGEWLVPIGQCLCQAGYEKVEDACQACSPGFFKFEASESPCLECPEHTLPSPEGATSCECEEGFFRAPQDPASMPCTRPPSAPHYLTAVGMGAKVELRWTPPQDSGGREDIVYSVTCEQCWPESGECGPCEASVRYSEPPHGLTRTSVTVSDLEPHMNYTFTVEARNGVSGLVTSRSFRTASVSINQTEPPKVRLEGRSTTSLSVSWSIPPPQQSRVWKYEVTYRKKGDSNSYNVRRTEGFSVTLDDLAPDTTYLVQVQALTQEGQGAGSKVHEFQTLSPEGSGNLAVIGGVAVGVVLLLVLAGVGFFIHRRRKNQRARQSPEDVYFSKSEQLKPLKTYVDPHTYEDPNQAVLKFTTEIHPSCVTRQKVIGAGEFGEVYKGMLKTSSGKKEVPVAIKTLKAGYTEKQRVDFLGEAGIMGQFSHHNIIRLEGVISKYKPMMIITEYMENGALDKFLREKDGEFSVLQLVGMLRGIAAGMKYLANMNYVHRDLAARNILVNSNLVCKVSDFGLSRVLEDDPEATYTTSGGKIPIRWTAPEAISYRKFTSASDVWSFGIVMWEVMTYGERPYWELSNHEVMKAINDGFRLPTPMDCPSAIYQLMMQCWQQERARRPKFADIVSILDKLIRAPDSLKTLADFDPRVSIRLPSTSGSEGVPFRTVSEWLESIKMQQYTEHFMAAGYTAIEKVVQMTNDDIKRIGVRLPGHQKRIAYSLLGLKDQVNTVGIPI

binding (EphA2-GFP (human)): binds
binding [1]: binds
Substance: Rab-coupling protein (RCP), endogenous (from UniProt Q6WKZ4-3)

Source: publication PMC5355957
